# Laboratory results reported in patent US6339062B1, “Retroinverso polypeptides that mimic or inhibit thrombospondin activity” (Inkine Pharmaceutical Company, Inc., priority 1998, dated 2002).
# Some of these results come from one statement about several compounds together. Where no end group is shown, it is not given here. The star is where a group is joined. Acm = CC(=O)NC*
# Assays:
# [1] = tested on: mouse B16-F10 melanoma cells; assay: Tumor cell metastasis, one i.p. injection of peptide (Example 32); type: in vivo; details: 1 mg peptide i.p. once; 14 days; FIG. 21
# Experimental: Mouse B16-F10 melanoma cells (75,000 ) were injected intravenously and was immediately followed by one intraperitoneal injection of 1 mg of peptide. Six animals were treated with each peptide. Animals were sacrificed 14 days later and lung colonies counted. The data shown in FIG. 21 represents the mean of lung colonies and the error bars represent the standard error of the mean. The peptides, d-Gly-Cys-(Acm)-Thr-Val-Ser-Cys-(Acm) (retroinverso) (SEQ ID NO: 35), and l-Cys-(Acm)-Ser-Val-Thr-Cys-(Acm)-Gly (SEQ ID NO: 6) inhibited metastasis by more than 80%, whereas d-Cys-Ser-Val-Thr-Cys-Gly (SEQ ID NO: 40) had no effect.
# [2] = tested on: mouse B16-F10 melanoma cells; assay: Boyden chamber assay, TSP-1 mediated invasion of collagen (Examples 29, 30); type: cell-based; details: 500 μg/ml peptide top chamber; 20 μg/ml TSP-1 bottom chamber; 6 hours; FIG. 18
# Experimental: Cell invasion was investigated by the Boyden Chamber Invasion Assay using the modified Boyden chamber. T. Frandsen et al., Fibrinolysis, 6: 71-76 (1992). Polycarbonate filters, 12 μm pore size, e.g., Millicell, Millipore Corporation, Bedford, Ma, were coated with 100 μg Type IV collagen (1 mg/ml 60% EtOH) and dried overnight at 25° C. Blind-well Boyden chambers are filled with 600 μl of serum-free media containing 0.1% BSA in the lower compartment, and the coated filters will be mounted in the chamber. Approximately 50,000 cells (tested to be greater than 95% viable) suspended in 400 μl of the same media will be placed in the upper chamber of the apparatus and allowed to settle onto the collagen-coated membrane. Varying concentrations of TSP-1 (0-150 nM) will be placed in the lower compartment and any neutralizing antibodies as well as peptides will be placed in the upper chamber. After an incubation period of about 3 to 6 hours at 37° C., the cells on the upper surface of the filter will be removed with a cotton swab. The filters are then fixed in 3% glutaraldehyde solution and stained with 0.5% crystal violet solution. Invasive cells adhering to the under-surface of the filter are counted using a phase contrast microscope (400×).
# Using this assay, mouse B16-F10 melanoma cells (50,000) were plated on the collagen-coated disk of the Boyden chamber apparatus. The top chamber contained melanoma cells in the presence of 500 μg/ml of the TSP-1 derived peptide and the bottom chamber contained 20 μg/ml TSP-1. After 6 hours, cells traversing the collagen were counted as cells attached to the underside of the collagen-coated disk. Five representative fields per chamber in duplicate were counted. The data shown in FIG. 18 represents the average per field and the error bars represent the standard deviation. The scrambled peptide, Val-Cys-Thr-Gly-Ser-Cys (SEQ ID NO: 7), the irrelevant peptide, Ala-Ser-Val-Thr-Ala-Arg (SEQ ID NO: 38), buffer, and the d-amino acid Cys-Ser-Val-Thr-Cys-Gly (SEQ ID NO: 40) had no effect on invasion.
# The experiments were performed as described for Example 29. […]
Substance,inhibition of metastasis (lung colonies) [1],inhibition of TSP-1 mediated invasion [2]
C(Acm)SVTC(Acm)G,more than 80%,more than 90%
CSVTCG (cysteine pairing not given here),,more than 90%
d-Gly-Cys-(Acm)-Thr-Val-Ser-Cys-(Acm),more than 80%,more than 90%
